Results are given in words; binding and its absence hold for the method and conditions named. In cells and extracts the contact can be indirect. Binding calls can cover weak binding; strength is not graded here. Tags and fused reporters may be left off the sequences shown.
Biological target: T1, GST-emerin (amino acids 1–176, lacking the TM domain) (UniProt P50402)
T1 sequence: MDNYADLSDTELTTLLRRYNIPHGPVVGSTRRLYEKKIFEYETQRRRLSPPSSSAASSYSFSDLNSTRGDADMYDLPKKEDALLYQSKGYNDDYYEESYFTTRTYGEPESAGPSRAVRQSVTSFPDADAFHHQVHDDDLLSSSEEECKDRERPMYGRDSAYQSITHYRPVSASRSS
Test: pull-down; reverse: GST-lamin A (356–665) or GST-emerin (1–176) on glutathione-Sepharose beads; lysates of U2OS cells transfected with GFP-nesprin-1α2 WT or mutants; 16 h at 4 °C; Western blot, densitometry as ratio to WT; only the target purified

binding, binds:
GFP-tagged nesprin-1α2 N8406K (human), GFP-tagged nesprin-1α2 R8272Q (human), GFP-tagged nesprin-1α2 S8381C (human), GFP-tagged nesprin-1α2 WT (human)

Source: PMC5458344
